According to publication doi:10.1101/2023.06.15.544950:
Results are given in words; binding and its absence hold for the method and conditions named. Some binding calls cover weakened binding; strength is not graded here. For part of these data: Tags and fused reporters may be left off the sequences shown.

Amino acid sequences for entries named in this document (tags omitted). Residues count along the entry.
UniProt P70211, residues 26-1447: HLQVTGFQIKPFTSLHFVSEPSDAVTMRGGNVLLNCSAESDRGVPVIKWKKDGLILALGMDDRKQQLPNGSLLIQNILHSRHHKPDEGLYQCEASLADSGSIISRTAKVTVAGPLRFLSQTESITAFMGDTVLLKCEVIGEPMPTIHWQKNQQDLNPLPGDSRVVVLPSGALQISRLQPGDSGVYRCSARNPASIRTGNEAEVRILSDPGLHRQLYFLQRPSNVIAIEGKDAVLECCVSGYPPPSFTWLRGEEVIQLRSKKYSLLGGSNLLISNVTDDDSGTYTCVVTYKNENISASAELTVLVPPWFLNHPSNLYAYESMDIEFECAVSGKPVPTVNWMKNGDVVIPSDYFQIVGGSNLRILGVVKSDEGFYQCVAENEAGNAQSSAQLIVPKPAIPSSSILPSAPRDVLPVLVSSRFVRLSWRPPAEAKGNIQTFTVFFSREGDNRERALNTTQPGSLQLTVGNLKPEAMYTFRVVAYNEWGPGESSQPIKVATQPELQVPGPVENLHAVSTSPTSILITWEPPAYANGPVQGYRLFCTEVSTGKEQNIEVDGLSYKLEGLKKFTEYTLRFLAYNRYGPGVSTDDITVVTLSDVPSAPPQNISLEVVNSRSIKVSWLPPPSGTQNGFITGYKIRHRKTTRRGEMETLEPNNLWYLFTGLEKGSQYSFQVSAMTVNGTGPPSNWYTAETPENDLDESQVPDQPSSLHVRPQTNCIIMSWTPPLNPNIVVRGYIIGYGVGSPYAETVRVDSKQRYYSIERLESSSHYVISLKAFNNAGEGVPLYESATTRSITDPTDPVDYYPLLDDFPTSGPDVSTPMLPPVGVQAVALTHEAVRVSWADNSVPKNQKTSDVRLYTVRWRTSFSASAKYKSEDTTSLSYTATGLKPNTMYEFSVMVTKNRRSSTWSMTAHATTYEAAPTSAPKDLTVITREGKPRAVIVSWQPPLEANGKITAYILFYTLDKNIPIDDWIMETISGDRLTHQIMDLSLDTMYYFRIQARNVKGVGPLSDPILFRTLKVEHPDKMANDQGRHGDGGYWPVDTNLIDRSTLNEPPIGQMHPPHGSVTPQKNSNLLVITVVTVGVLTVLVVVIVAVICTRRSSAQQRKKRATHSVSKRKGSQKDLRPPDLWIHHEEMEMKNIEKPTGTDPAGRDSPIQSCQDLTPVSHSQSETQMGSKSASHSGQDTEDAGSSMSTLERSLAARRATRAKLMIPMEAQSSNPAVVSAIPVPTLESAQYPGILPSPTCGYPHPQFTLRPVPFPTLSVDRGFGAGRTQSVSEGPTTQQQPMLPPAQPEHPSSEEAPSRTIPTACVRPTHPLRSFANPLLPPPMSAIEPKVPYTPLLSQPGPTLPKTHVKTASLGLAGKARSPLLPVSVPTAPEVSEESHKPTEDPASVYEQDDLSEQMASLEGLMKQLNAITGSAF
UniProt P97798, residues 37-1492: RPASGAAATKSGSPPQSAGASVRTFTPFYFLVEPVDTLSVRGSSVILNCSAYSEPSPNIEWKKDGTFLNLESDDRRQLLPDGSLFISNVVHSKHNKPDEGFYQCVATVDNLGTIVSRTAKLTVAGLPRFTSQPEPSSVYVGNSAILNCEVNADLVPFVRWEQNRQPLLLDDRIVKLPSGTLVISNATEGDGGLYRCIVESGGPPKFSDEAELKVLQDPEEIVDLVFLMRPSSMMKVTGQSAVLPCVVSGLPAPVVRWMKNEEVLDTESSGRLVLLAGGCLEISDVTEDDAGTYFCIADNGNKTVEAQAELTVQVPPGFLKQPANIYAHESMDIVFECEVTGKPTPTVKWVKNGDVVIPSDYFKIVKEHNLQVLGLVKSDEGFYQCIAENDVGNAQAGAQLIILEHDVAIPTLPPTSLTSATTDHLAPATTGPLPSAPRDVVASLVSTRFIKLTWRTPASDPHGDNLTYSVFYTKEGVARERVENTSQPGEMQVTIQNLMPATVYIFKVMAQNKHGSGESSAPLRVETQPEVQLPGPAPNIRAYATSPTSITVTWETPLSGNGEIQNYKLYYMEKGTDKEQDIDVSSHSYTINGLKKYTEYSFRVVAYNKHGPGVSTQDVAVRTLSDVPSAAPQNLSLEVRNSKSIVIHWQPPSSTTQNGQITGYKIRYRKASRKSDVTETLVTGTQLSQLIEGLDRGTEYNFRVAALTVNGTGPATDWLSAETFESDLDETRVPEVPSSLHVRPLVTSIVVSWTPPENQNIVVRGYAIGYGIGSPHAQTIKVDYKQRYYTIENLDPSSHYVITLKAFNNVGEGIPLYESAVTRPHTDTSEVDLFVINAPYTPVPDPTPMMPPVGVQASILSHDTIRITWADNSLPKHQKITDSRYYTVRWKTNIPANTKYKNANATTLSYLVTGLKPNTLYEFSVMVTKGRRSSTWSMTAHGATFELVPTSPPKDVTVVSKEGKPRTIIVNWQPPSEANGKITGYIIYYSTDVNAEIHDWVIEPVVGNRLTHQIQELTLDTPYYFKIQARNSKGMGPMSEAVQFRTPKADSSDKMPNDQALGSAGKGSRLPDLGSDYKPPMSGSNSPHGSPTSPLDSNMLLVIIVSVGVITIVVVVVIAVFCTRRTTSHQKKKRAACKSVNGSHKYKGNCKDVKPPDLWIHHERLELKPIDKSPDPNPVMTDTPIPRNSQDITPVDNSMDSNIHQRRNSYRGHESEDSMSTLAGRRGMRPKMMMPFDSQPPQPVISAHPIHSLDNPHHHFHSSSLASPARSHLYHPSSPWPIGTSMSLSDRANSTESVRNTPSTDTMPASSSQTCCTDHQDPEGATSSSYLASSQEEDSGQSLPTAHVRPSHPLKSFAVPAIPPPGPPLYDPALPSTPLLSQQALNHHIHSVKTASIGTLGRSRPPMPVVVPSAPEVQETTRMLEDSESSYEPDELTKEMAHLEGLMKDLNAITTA

Assays:
[1] = molecular target: T1, mWFIKKN2 (biotinylated, SPR ligand) (mouse) (UniProt Q7TQN3); experiment: SPR
T1 sequence (chain, N-terminally biotinylated using Sulfo-NHS-SS-Biotin): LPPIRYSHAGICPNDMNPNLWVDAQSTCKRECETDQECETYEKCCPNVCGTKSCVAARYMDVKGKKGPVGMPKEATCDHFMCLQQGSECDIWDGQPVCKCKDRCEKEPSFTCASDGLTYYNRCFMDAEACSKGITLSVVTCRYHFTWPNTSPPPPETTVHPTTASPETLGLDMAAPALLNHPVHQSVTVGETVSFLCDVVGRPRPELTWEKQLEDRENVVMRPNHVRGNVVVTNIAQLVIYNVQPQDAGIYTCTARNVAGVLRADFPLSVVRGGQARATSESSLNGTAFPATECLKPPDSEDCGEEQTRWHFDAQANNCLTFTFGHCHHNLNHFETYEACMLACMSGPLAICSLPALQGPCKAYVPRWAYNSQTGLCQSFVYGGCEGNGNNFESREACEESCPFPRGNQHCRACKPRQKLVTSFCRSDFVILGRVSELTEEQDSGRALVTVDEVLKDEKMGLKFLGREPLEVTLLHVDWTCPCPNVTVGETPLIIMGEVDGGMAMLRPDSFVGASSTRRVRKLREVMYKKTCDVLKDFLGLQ

[2] = molecular target: T2, fusion of WFIKKN2 and Fc (secreted protein microarray) (UniProt Q8TEU8); experiment: peptide or protein array
T2 sequence: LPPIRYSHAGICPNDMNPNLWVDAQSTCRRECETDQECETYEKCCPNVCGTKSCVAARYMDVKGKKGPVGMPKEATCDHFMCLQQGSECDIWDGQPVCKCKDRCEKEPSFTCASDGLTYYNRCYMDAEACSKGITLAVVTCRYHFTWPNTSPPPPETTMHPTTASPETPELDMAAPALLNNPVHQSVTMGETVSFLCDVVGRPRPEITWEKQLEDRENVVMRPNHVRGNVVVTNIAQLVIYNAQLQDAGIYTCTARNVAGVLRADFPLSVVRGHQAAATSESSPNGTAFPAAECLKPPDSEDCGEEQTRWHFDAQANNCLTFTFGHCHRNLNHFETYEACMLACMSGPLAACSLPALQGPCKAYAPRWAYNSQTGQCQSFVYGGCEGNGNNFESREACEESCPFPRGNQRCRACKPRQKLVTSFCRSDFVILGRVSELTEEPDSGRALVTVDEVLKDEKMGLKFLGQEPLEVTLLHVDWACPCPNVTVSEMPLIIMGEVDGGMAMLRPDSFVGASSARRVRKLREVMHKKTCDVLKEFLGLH

[3] = molecular target: DCC expressed on COS-7 cells (UniProt P70211); experiment: AP fusion protein binding assay on cells
[4] = molecular target: Neogenin (Neo1) expressed on COS-7 cells (UniProt P97798); experiment: AP fusion protein binding assay on cells
[5] = molecular target: T3, Nope expressed on COS-7 cells (UniProt Q9EQS9); experiment: AP fusion protein binding assay on cells
T3 sequence: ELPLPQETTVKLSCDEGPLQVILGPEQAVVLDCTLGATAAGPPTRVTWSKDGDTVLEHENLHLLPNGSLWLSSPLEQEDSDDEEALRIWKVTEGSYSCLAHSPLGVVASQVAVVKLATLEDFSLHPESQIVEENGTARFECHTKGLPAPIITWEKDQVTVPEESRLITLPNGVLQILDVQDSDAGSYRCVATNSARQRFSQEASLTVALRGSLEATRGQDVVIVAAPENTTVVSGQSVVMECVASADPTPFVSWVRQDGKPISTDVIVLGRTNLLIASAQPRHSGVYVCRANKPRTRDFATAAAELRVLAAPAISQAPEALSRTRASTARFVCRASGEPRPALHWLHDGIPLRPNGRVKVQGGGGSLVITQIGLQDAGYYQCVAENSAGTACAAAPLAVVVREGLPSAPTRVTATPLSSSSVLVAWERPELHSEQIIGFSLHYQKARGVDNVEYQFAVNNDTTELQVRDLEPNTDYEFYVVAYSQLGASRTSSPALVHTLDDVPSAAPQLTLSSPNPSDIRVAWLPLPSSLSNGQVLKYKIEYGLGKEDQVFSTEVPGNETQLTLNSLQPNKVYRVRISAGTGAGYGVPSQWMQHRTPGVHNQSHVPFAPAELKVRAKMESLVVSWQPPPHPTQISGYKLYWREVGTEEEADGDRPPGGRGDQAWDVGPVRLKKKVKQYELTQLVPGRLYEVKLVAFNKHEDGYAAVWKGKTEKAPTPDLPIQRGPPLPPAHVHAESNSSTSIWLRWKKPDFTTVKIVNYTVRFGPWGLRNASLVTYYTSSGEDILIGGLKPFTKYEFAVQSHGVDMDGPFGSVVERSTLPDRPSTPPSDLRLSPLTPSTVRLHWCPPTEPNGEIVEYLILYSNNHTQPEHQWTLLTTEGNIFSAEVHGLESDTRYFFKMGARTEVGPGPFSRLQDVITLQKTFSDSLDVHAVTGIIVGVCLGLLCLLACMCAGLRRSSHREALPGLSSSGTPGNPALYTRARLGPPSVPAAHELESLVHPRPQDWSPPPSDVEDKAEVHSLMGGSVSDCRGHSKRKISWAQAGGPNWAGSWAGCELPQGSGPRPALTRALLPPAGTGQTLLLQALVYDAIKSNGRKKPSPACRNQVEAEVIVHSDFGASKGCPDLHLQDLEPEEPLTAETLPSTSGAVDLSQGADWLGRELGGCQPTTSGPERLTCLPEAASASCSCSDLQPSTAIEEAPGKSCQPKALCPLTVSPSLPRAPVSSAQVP

[6] = molecular target: T4, Punc expressed on COS-7 cells (UniProt Q8BQC3); experiment: AP fusion protein binding assay on cells
T4 sequence: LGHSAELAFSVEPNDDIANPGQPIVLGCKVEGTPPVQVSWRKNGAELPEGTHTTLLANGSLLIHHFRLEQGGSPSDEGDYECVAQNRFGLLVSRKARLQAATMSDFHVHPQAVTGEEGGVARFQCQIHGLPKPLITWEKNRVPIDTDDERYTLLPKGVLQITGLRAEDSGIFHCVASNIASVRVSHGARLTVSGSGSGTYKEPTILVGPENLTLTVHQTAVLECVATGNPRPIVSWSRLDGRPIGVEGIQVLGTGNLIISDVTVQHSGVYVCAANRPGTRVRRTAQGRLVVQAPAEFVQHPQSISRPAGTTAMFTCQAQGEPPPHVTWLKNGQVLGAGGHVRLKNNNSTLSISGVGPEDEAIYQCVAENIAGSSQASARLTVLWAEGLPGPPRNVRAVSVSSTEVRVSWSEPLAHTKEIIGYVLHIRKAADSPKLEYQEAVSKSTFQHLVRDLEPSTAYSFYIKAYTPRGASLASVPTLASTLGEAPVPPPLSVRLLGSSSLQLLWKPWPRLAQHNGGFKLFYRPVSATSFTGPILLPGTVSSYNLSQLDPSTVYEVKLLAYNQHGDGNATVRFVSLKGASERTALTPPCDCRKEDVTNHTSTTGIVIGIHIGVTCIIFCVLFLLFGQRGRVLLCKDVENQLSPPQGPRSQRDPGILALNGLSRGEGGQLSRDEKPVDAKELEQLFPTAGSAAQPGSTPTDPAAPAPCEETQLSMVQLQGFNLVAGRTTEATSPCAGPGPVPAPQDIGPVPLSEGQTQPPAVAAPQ

B1: mNope ECD (SPR analyte) (domain or fragment, UniProt Q9EQS9-1 23-956)
chain: ELPLPQETTVKLSCDEGPLQVILGPEQAVVLDCTLGATAAGPPTRVTWSKDGDTVLEHENLHLLPNGSLWLSSPLEQEDSDDEEALRIWKVTEGSYSCLAHSPLGVVASQVAVVKLATLEDFSLHPESQIVEENGTARFECHTKGLPAPIITWEKDQVTVPEESRLITLPNGVLQILDVQDSDAGSYRCVATNSARQRFSQEASLTVALRGSLEATRGQDVVIVAAPENTTVVSGQSVVMECVASADPTPFVSWVRQDGKPISTDVIVLGRTNLLIASAQPRHSGVYVCRANKPRTRDFATAAAELRVLAAPAISQAPEALSRTRASTARFVCRASGEPRPALHWLHDGIPLRPNGRVKVQGGGGSLVITQIGLQDAGYYQCVAENSAGTACAAAPLAVVVREGLPSAPTRVTATPLSSSSVLVAWERPELHSEQIIGFSLHYQKARGVDNVEYQFAVNNDTTELQVRDLEPNTDYEFYVVAYSQLGASRTSSPALVHTLDDVPSAAPQLTLSSPNPSDIRVAWLPLPSSLSNGQVLKYKIEYGLGKEDQVFSTEVPGNETQLTLNSLQPNKVYRVRISAGTGAGYGVPSQWMQHRTPGVHNQSHVPFAPAELKVRAKMESLVVSWQPPPHPTQISGYKLYWREVGTEEEADGDRPPGGRGDQAWDVGPVRLKKKVKQYELTQLVPGRLYEVKLVAFNKHEDGYAAVWKGKTEKAPTPDLPIQRGPPLPPAHVHAESNSSTSIWLRWKKPDFTTVKIVNYTVRFGPWGLRNASLVTYYTSSGEDILIGGLKPFTKYEFAVQSHGVDMDGPFGSVVERSTLPDRPSTPPSDLRLSPLTPSTVRLHWCPPTEPNGEIVEYLILYSNNHTQPEHQWTLLTTEGNIFSAEVHGLESDTRYFFKMGARTEVGPGPFSRLQDVITLQKTFSDSLDVHAVT
binding [1]: binds

B2: fusion of mNope ECD (G22-H953) to human Fc (Fc fusion, UniProt Q9EQS9-1 22-953)
chain: GELPLPQETTVKLSCDEGPLQVILGPEQAVVLDCTLGATAAGPPTRVTWSKDGDTVLEHENLHLLPNGSLWLSSPLEQEDSDDEEALRIWKVTEGSYSCLAHSPLGVVASQVAVVKLATLEDFSLHPESQIVEENGTARFECHTKGLPAPIITWEKDQVTVPEESRLITLPNGVLQILDVQDSDAGSYRCVATNSARQRFSQEASLTVALRGSLEATRGQDVVIVAAPENTTVVSGQSVVMECVASADPTPFVSWVRQDGKPISTDVIVLGRTNLLIASAQPRHSGVYVCRANKPRTRDFATAAAELRVLAAPAISQAPEALSRTRASTARFVCRASGEPRPALHWLHDGIPLRPNGRVKVQGGGGSLVITQIGLQDAGYYQCVAENSAGTACAAAPLAVVVREGLPSAPTRVTATPLSSSSVLVAWERPELHSEQIIGFSLHYQKARGVDNVEYQFAVNNDTTELQVRDLEPNTDYEFYVVAYSQLGASRTSSPALVHTLDDVPSAAPQLTLSSPNPSDIRVAWLPLPSSLSNGQVLKYKIEYGLGKEDQVFSTEVPGNETQLTLNSLQPNKVYRVRISAGTGAGYGVPSQWMQHRTPGVHNQSHVPFAPAELKVRAKMESLVVSWQPPPHPTQISGYKLYWREVGTEEEADGDRPPGGRGDQAWDVGPVRLKKKVKQYELTQLVPGRLYEVKLVAFNKHEDGYAAVWKGKTEKAPTPDLPIQRGPPLPPAHVHAESNSSTSIWLRWKKPDFTTVKIVNYTVRFGPWGLRNASLVTYYTSSGEDILIGGLKPFTKYEFAVQSHGVDMDGPFGSVVERSTLPDRPSTPPSDLRLSPLTPSTVRLHWCPPTEPNGEIVEYLILYSNNHTQPEHQWTLLTTEGNIFSAEVHGLESDTRYFFKMGARTEVGPGPFSRLQDVITLQKTFSDSLDVH
binding [2]: binds

B3: WFIKKN2-AP (ligand, UniProt Q7TQN3 30-571)
chain: LPPIRYSHAGICPNDMNPNLWVDAQSTCKRECETDQECETYEKCCPNVCGTKSCVAARYMDVKGKKGPVGMPKEATCDHFMCLQQGSECDIWDGQPVCKCKDRCEKEPSFTCASDGLTYYNRCFMDAEACSKGITLSVVTCRYHFTWPNTSPPPPETTVHPTTASPETLGLDMAAPALLNHPVHQSVTVGETVSFLCDVVGRPRPELTWEKQLEDRENVVMRPNHVRGNVVVTNIAQLVIYNVQPQDAGIYTCTARNVAGVLRADFPLSVVRGGQARATSESSLNGTAFPATECLKPPDSEDCGEEQTRWHFDAQANNCLTFTFGHCHHNLNHFETYEACMLACMSGPLAICSLPALQGPCKAYVPRWAYNSQTGLCQSFVYGGCEGNGNNFESREACEESCPFPRGNQHCRACKPRQKLVTSFCRSDFVILGRVSELTEEQDSGRALVTVDEVLKDEKMGLKFLGREPLEVTLLHVDWTCPCPNVTVGETPLIIMGEVDGGMAMLRPDSFVGASSTRRVRKLREVMYKKTCDVLKDFLGLQ
binding [3]: no binding | binding [4]: no binding | binding [5]: binds | binding [6]: binds
